Results are given in words; binding and its absence hold for the method and conditions named. In cells and extracts the contact can be indirect. Some binding calls cover weakened binding; strength is not graded here.
Target: T1, neutral sphingomyelinase 1 (nSMase1) (UniProt O60906)
T1 sequence: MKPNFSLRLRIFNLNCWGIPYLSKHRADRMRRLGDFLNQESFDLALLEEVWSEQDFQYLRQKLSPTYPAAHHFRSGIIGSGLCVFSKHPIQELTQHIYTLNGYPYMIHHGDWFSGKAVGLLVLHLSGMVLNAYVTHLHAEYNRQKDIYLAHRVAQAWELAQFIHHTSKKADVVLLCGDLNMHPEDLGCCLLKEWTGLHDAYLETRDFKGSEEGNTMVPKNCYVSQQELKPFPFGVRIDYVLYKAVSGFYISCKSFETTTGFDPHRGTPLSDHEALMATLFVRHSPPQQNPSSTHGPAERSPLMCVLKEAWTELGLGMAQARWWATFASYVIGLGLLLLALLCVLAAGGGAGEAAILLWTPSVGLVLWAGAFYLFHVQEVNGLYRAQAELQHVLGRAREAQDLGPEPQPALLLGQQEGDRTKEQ
Experiment: co-IP; astrocyte lysates (IP lysis buffer), control or hypoxia-treated cells; primary antibody or species-matched IgG control (1:100), protein A/G magnetic beads 2 h at 4 °C, three washes with IP lysis buffer, Western blot; nSMase1-bound HK2 quantified

binding: binds
B1: hexokinase 2 (HK2) (enzyme, UniProt P52789 1-917)
chain: MIASHLLAYFFTELNHDQVQKVDQYLYHMRLSDETLLEISKRFRKEMEKGLGATTHPTAAVKMLPTFVRSTPDGTEHGEFLALDLGGTNFRVLWVKVTDNGLQKVEMENQIYAIPEDIMRGSGTQLFDHIAECLANFMDKLQIKDKKLPLGFTFSFPCHQTKLDESFLVSWTKGFKSSGVEGRDVVALIRKAIQRRGDFDIDIVAVVNDTVGTMMTCGYDDHNCEIGLIVGTGSNACYMEEMRHIDMVEGDEGRMCINMEWGAFGDDGSLNDIRTEFDQEIDMGSLNPGKQLFEKMISGMYMGELVRLILVKMAKEELLFGGKLSPELLNTGRFETKDISDIEGEKDGIRKAREVLMRLGLDPTQEDCVATHRICQIVSTRSASLCAATLAAVLQRIKENKGEERLRSTIGVDGSVYKKHPHFAKRLHKTVRRLVPGCDVRFLRSEDGSGKGAAMVTAVAYRLADQHRARQKTLEHLQLSHDQLLEVKRRMKVEMERGLSKETHASAPVKMLPTYVCATPDGTEKGDFLALDLGGTNFRVLLVRVRNGKWGGVEMHNKIYAIPQEVMHGTGDELFDHIVQCIADFLEYMGMKGVSLPLGFTFSFPCQQNSLDESILLKWTKGFKASGCEGEDVVTLLKEAIHRREEFDLDVVAVVNDTVGTMMTCGFEDPHCEVGLIVGTGSNACYMEEMRNVELVEGEEGRMCVNMEWGAFGDNGCLDDFRTEFDVAVDELSLNPGKQRFEKMISGMYLGEIVRNILIDFTKRGLLFRGRISERLKTRGIFETKFLSQIESDCLALLQVRAILQHLGLESTCDDSIIVKEVCTVVARRAAQLCGAGMAAVVDRIRENRGLDALKVTVGVDGTLYKLHPHFAKVMHETVKDLAPKCDVSFLQSEDGSGKGAALITAVACRIREAGQR

Source: paper PMC12533208
